# Experimental data published in the supplement of paper PMC10849652.
# Sequences of proteins named here, by UniProt entry; tags and fusion partners are left off. A change or cut given only in a name is not applied to a line headed by its entry.
# UniProt P68104, whole entry, looked up: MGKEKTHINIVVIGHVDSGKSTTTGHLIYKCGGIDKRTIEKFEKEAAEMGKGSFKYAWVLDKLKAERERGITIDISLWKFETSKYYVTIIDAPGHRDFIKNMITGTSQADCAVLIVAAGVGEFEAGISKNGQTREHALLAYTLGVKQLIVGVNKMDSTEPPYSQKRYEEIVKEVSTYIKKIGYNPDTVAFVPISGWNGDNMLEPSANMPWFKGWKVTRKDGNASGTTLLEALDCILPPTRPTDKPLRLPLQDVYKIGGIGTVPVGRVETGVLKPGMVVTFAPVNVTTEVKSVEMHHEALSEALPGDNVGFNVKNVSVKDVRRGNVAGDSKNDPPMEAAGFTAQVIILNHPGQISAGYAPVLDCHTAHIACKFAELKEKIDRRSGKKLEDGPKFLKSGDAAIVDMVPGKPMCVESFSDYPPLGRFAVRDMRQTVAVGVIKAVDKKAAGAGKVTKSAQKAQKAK
# UniProt P41091, whole entry, looked up: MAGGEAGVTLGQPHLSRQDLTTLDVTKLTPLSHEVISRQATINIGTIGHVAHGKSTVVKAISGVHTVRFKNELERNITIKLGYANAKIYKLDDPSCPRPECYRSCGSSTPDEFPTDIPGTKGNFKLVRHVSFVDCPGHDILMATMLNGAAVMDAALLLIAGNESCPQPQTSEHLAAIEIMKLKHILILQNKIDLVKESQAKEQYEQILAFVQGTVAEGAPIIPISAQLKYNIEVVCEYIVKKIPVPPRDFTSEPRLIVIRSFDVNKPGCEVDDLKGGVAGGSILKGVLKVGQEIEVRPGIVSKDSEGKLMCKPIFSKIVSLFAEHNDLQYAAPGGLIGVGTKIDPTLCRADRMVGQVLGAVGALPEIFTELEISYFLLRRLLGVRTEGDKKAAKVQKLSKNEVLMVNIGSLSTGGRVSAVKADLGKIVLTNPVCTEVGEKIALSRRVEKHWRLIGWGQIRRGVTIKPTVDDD
# UniProt Q5VTE0, whole entry, looked up: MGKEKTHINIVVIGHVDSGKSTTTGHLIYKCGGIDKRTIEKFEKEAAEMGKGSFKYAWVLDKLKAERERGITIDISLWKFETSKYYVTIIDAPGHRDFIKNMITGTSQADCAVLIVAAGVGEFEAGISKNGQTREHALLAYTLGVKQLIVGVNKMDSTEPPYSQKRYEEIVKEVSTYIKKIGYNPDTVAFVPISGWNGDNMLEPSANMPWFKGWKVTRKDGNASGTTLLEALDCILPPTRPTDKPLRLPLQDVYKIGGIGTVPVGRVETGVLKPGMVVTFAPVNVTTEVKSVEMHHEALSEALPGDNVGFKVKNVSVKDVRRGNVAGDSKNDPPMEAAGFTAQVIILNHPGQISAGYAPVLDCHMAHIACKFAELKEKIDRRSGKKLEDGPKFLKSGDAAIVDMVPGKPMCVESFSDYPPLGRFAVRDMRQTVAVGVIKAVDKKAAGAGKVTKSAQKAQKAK
# UniProt P06733, whole entry, looked up: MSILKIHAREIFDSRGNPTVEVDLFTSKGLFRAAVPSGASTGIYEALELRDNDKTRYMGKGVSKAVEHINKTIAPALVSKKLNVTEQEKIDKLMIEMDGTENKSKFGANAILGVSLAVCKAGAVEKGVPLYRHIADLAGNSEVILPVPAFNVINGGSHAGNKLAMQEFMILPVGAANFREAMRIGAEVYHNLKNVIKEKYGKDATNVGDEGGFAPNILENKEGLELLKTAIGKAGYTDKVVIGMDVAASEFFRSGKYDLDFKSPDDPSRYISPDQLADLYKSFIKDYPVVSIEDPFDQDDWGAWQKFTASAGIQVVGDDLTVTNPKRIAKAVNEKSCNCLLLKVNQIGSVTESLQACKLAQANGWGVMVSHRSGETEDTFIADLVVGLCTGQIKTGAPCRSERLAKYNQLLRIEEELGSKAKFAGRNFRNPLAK
# UniProt P19525: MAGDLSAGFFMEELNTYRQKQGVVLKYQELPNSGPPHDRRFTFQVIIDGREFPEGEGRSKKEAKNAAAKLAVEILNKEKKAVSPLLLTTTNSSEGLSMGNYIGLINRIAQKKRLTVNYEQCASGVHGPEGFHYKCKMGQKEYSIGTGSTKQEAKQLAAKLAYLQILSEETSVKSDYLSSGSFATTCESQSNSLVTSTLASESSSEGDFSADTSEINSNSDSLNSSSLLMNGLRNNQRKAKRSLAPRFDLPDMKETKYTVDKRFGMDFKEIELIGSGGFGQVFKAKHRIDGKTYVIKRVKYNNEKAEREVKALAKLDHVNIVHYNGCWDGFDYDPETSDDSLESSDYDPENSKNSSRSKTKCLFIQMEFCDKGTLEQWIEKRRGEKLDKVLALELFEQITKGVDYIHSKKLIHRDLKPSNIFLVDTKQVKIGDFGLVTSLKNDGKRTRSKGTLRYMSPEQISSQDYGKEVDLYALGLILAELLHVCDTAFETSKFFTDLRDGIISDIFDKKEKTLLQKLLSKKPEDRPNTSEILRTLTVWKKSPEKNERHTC
# UniProt Q9H4M9: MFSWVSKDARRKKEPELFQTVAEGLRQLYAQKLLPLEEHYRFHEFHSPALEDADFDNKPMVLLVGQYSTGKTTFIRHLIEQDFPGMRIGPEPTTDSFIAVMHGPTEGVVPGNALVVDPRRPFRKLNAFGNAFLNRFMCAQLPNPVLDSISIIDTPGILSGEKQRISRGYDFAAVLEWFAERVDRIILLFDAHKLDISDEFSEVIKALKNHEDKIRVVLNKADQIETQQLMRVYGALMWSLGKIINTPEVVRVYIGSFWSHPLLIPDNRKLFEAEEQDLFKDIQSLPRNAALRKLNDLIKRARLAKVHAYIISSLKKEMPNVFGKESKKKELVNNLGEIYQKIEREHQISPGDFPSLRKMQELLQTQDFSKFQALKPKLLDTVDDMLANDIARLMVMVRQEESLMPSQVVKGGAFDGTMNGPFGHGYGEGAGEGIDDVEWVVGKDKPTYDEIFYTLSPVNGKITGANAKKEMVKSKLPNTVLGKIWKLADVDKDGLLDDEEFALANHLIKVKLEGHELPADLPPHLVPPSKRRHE
# UniProt Q04637, whole entry, looked up: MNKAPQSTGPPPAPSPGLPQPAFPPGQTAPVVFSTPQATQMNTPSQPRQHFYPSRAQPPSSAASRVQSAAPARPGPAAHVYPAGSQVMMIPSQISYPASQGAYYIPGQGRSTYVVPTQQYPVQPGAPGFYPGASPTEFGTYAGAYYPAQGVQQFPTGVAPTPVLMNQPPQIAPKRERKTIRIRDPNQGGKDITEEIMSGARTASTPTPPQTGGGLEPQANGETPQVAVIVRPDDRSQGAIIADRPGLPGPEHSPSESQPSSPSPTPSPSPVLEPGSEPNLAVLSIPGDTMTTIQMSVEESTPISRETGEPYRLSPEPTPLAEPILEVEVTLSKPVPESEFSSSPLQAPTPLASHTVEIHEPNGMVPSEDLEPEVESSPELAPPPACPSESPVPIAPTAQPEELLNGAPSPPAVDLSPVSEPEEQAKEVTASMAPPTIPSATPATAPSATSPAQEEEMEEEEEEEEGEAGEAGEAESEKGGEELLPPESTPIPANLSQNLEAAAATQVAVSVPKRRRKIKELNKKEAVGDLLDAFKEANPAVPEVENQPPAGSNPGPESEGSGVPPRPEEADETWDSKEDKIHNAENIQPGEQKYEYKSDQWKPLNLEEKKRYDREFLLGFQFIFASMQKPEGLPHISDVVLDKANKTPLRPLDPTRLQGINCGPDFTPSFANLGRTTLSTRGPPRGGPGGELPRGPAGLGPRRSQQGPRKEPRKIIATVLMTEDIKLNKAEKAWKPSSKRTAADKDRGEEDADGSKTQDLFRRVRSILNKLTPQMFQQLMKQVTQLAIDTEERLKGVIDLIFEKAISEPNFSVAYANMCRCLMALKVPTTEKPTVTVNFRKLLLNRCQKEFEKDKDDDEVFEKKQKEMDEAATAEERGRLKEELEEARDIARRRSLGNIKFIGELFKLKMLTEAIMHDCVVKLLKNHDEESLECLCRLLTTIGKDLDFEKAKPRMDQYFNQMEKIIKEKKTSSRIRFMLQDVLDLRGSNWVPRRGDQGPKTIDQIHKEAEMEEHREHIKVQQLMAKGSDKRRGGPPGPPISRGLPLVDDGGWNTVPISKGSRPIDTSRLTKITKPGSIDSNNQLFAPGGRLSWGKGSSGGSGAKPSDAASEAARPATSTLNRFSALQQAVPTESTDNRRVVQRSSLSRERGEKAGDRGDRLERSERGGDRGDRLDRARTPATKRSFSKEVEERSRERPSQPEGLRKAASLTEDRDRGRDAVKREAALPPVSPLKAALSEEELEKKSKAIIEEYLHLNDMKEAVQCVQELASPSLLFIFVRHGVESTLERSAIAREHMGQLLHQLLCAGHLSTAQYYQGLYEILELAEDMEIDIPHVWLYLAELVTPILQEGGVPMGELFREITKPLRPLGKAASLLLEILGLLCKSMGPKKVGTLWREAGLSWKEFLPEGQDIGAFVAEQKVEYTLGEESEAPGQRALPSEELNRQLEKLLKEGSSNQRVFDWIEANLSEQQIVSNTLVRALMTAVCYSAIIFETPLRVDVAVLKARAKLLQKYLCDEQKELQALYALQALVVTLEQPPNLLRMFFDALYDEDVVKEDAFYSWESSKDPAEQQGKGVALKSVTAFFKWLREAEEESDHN
# UniProt P26378: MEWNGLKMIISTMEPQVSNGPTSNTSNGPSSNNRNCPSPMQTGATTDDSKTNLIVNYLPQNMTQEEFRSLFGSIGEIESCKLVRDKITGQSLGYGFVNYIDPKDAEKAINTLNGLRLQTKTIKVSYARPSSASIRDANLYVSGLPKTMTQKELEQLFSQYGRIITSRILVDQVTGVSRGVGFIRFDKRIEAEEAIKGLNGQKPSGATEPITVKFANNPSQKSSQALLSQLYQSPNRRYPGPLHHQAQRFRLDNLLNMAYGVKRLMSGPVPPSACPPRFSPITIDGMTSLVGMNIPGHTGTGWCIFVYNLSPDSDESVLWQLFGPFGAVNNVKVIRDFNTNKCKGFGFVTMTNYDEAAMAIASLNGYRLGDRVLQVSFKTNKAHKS
# UniProt Q5NDL2: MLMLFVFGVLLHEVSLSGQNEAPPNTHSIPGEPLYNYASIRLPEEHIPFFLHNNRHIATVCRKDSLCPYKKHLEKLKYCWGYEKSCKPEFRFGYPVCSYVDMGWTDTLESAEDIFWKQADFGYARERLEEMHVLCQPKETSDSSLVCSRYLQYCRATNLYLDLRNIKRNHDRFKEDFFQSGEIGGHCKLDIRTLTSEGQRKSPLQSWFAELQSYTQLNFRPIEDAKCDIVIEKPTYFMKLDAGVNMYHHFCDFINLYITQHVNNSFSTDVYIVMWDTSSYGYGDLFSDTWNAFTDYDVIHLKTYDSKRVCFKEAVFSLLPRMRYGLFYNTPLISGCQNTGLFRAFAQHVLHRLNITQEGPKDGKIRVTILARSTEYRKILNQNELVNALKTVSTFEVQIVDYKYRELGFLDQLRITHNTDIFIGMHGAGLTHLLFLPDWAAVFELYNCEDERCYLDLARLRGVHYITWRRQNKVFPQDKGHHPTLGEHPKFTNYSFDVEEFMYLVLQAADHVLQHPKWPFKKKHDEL
# UniProt Q9Y227: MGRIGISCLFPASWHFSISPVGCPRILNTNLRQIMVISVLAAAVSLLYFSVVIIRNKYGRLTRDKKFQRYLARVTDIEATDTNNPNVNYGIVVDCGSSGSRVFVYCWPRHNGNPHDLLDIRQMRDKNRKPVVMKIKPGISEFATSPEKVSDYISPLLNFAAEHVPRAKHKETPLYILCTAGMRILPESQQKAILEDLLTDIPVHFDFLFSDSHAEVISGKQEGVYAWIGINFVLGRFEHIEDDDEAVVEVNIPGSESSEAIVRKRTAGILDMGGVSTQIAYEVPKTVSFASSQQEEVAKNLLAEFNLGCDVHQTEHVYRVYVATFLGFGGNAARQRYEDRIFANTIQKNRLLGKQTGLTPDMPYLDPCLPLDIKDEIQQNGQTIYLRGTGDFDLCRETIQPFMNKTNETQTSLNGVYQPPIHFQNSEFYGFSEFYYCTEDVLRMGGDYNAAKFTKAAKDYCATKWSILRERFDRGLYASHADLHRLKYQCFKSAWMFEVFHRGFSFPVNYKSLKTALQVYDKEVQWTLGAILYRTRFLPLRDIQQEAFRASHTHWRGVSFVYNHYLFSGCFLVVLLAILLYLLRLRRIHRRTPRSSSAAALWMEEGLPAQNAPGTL
# UniProt Q15369, whole entry, looked up: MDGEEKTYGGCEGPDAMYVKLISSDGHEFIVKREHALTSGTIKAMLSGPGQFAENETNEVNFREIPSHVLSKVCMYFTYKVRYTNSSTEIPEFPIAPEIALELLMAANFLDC
# UniProt P60842, whole entry, looked up: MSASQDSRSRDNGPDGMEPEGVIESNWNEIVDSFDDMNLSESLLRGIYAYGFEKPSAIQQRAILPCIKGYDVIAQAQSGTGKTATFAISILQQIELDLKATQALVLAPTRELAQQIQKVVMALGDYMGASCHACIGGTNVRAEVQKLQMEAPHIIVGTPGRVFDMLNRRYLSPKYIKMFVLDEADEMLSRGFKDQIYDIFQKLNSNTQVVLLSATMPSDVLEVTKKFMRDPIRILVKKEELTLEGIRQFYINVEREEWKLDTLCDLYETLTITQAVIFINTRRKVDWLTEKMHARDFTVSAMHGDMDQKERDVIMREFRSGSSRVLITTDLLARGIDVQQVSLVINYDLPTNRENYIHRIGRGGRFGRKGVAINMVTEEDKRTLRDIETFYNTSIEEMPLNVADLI
# The list shows a part of the results. Residues, ends and D or L forms follow the SMILES beside them. *: point of attachment. Cbz = O=C(OCc1ccccc1)*
# Experiments:
# Experiment in all cases: log2 fold change, soluble protein after heating vs DMSO (PISA); higher = thermal stabilisation; K562 cells, 10 uM, 30 min; active = over 0.2 and 3.5 SD of the protein, either way, in both replicates (recomputed)
# IRAK-1-4 Inhibitor I = compound: C1COCCN1CCN2C3=CC=CC=C3N=C2NC(=O)C4=CC(=CC=C4)[N+](=O)[O-] [IRAK-1-4 Inhibitor I]
# Method in brief: (§1)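 K562 cells at 2×10^6 cells/mL were given 10 μM compound for 30 min. Aliquots then went through 3 min of heating across 48°C-58°C, were pooled, and were extracted in PBS with 0.5% NP-40 at 4°C, and the supernatant after 21,000xg for 90 min was quantified by TMTpro 16plex LC-MS/MS with channel sums equalised. Thermal stability relative to control samples, from duplicates, is given as log2 fold change.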
# ibrutinib = compound: C=CC(=O)N1CCC[C@@H](n2nc(-c3ccc(Oc4ccccc4)cc3)c3c(N)ncnc32)C1 [ibrutinib]
# Method in brief: as §1
# [1] = compound: CC(=O)c1cnc2ccc(-c3cc(Cl)c(O)c(Cl)c3)nc2c1N[C@H]1CC[C@H](CN(C)C)CC1
# Method in brief: as §1
# ralimetinib = compound: CC(C)(C)Cn1c(N)nc2ccc(-c3[nH]c(C(C)(C)C)nc3-c3ccc(F)cc3)nc21 [ralimetinib]
# Method in brief: as §1
# [2] = compound: CC(C)(O)CC(=O)NCCn1ccc2ncnc(Nc3ccc(Oc4cccc(C(F)(F)F)c4)c(Cl)c3)c21
# Method in brief: as §1
# [3] = compound: CC(C)C1=C2N=C(C=C(N2N=C1)NCC3=CC=CC=C3)NCCCCCCN
# Method in brief: as §1
# [4] = compound: CC(C)C[C@@H](C=O)NC(=O)[C@H](CC(C)C)NC(=O)[C@H](CC(C)C)NC(=O)OCc1ccccc1
# Method in brief: as §1
# pinometostat = compound: CC(C)N(C[C@H]1O[C@@H](n2cnc3c(N)ncnc32)[C@H](O)[C@@H]1O)[C@H]1C[C@@H](CCc2nc3cc(C(C)(C)C)ccc3[nH]2)C1 [pinometostat]
# Method in brief: as §1
# [5] = compound: CC1=C(C2=C(C=C1)C(=O)C3=CC=CC=C3N2CCCN)C
# Method in brief: as §1
# [6] = compound: CC1=C(C(CC(=O)N1)C2=CC=C(C=C2)C(F)(F)F)C(=O)NC3=C(C=C4C(=C3)C=NN4)F
# Method in brief: as §1
Target,log2 fold change (IRAK-1-4 Inhibitor I),log2 fold change (ibrutinib),log2 fold change [1],log2 fold change (ralimetinib),log2 fold change [2],log2 fold change [3],log2 fold change [4],log2 fold change (pinometostat),log2 fold change [5],log2 fold change [6]
EEF1A1 (UniProt P68104),inactive: 0.133,inactive: 0.121,inactive: 0.05,inactive: 0.133,inactive: -0.052,inactive: -0.037,inactive: -0.019,inactive: -0.028,inactive: -0.178,
EIF1AX (UniProt P47813),inactive: 0.051,inactive: -0.043,inactive: 0.006,inactive: 0.034,inactive: 0.023,inactive: 0.002,inactive: -0.023,inactive: -0.023,inactive: -0.057,inactive: -0.035
EIF2S3 (UniProt P41091),inactive: -0.126,inactive: 0.021,inactive: -0.004,inactive: 0.061,inactive: 0.05,inactive: 0.052,inactive: 0.075,inactive: 0.077,inactive: 0.195,
ENGASE (UniProt Q8NFI3),inactive: 0.036,inactive: -0.028,inactive: -0.05,inactive: -0.001,inactive: -0.037,inactive: 0.005,inactive: 0.082,inactive: -0.006,inactive: 0.005,inactive: 0.029
EIF3L (UniProt Q9Y262),inactive: 0.038,inactive: -0.002,inactive: -0.022,inactive: -0.03,inactive: -0.036,inactive: -0.028,inactive: -0.005,inactive: 0.002,inactive: -0.01,inactive: 0.051
ENDOD1 (UniProt O94919),inactive: 0.001,inactive: -0.004,inactive: -0.02,inactive: 0.043,inactive: 0.048,inactive: 0.043,inactive: -0.039,inactive: -0.005,inactive: 0.033,inactive: -0.029
EEF1A1P5 (UniProt Q5VTE0),inactive: 0.029,inactive: -0.017,inactive: -0.02,inactive: -0.013,inactive: -0.03,inactive: -0.009,inactive: 0.005,inactive: -0.028,inactive: -0.082,inactive: 0.007
EIF4E2 (UniProt O60573),inactive: 0.064,inactive: -0.007,inactive: -0.272,inactive: 0.012,inactive: -0.036,inactive: -0.109,inactive: 0.118,inactive: 0.043,inactive: 0.116,
ENO1 isoform 2 (UniProt P06733),inactive: 0.045,inactive: 0.126,inactive: 0.019,inactive: 0.06,inactive: -0.035,inactive: 0.183,inactive: 0.069,inactive: 0.02,inactive: 0.038,inactive: -0.062
EIF2AK2 (UniProt P19525),inactive: -0.289,inactive: 0.182,inactive: 0.099,inactive: 0.191,inactive: 0.106,inactive: -0.339,inactive: 0.149,inactive: 0.579,inactive: -0.135,
EML3 (UniProt Q32P44),inactive: -0.089,inactive: 0.022,inactive: 0.029,inactive: 0.11,inactive: 0.013,inactive: -0.138,inactive: 0.181,inactive: 0.266,inactive: 0.049,inactive: -0.007
EIF3G (UniProt O75821),inactive: -0.023,inactive: -0.044,inactive: 0.017,inactive: 0.044,inactive: -0.029,inactive: -0.037,inactive: 0.064,inactive: 0.084,inactive: 0,inactive: 0.062
EEF1AKNMT (UniProt Q8N6R0),inactive: -0.081,inactive: -0.116,inactive: -0.026,inactive: 0.141,inactive: -0.097,inactive: -0.199,inactive: 0.127,active: 0.354,inactive: 0.13,
EHD1 (UniProt Q9H4M9),inactive: 0.046,inactive: -0.021,inactive: -0.049,inactive: -0.007,inactive: -0.045,inactive: -0.034,inactive: -0.013,inactive: -0.021,inactive: 0.013,inactive: 0.003
EP300 (UniProt Q09472),inactive: 0.128,inactive: 0.048,inactive: -0.062,inactive: -0.145,inactive: -0.006,inactive: -0.005,inactive: 0.064,inactive: -0.056,inactive: 0.088,inactive: 0.005
EIF4E isoform 2 (UniProt P06730),inactive: 0.066,inactive: 0.089,inactive: 0.308,inactive: -0.071,inactive: -0.016,inactive: 0.114,inactive: 0.012,inactive: -0.057,inactive: 0.027,
ELOVL6 (UniProt Q9H5J4),inactive: 0.084,inactive: -0.093,,inactive: -0.005,,inactive: -0.221,inactive: 0.063,inactive: -0.022,inactive: 0.165,inactive: -0.043

# Quoted at random: 3 records from the list.
Target,log2 fold change (IRAK-1-4 Inhibitor I),log2 fold change (ibrutinib),log2 fold change [1],log2 fold change (ralimetinib),log2 fold change [2],log2 fold change [3],log2 fold change [4],log2 fold change (pinometostat),log2 fold change [5],log2 fold change [6]
EIF3L (UniProt Q9Y262),inactive: 0.038,inactive: -0.002,inactive: -0.022,inactive: -0.03,inactive: -0.036,inactive: -0.028,inactive: -0.005,inactive: 0.002,inactive: -0.01,inactive: 0.051
EIF4E isoform 2 (UniProt P06730),inactive: 0.066,inactive: 0.089,inactive: 0.308,inactive: -0.071,inactive: -0.016,inactive: 0.114,inactive: 0.012,inactive: -0.057,inactive: 0.027,
EEF1AKNMT (UniProt Q8N6R0),inactive: -0.081,inactive: -0.116,inactive: -0.026,inactive: 0.141,inactive: -0.097,inactive: -0.199,inactive: 0.127,active: 0.354,inactive: 0.13,

# The list continues.

Target,log2 fold change (IRAK-1-4 Inhibitor I),log2 fold change (ibrutinib),log2 fold change [1],log2 fold change (ralimetinib),log2 fold change [2],log2 fold change [3],log2 fold change [4],log2 fold change (pinometostat),log2 fold change [5],log2 fold change [6]
EIF4G3 isoform 3 (UniProt O43432),inactive: 0.012,inactive: 0,inactive: -0.074,inactive: -0.003,,inactive: -0.079,inactive: 0.017,inactive: 0.079,inactive: 0.03,
EIF4G1 isoform 8 (UniProt Q04637),inactive: -0.124,inactive: -0.148,inactive: -0.3,inactive: 0.057,inactive: -0.053,inactive: -0.387,inactive: 0.046,inactive: 0.149,inactive: 0.018,
EIF4B (UniProt F8VP89),inactive: -0.156,inactive: 0.102,inactive: -0.065,inactive: -0.091,,,inactive: 0.042,inactive: 0.193,,inactive: 0.244
ELAVL4 (UniProt P26378),inactive: -0.036,inactive: -0.123,,inactive: 0.298,,,inactive: 0.226,inactive: 0.356,inactive: -0.022,inactive: 0.081
EHD2 (UniProt Q9NZN4),inactive: 0.009,inactive: 0.008,inactive: -0.038,inactive: 0.003,inactive: -0.033,inactive: 0.002,inactive: 0.036,inactive: -0.044,inactive: 0.001,
EOGT (UniProt Q5NDL2),inactive: -0.002,inactive: 0.005,inactive: 0.006,inactive: -0.036,inactive: 0.016,inactive: -0.024,inactive: 0.026,inactive: 0.075,inactive: 0.003,
EEF1AKMT4-ECE2 (UniProt P0DPD8),inactive: 0.059,inactive: -0.204,,,,,,inactive: -0.002,,
ENTPD4 (UniProt Q9Y227),inactive: -0.083,inactive: 0.111,,,inactive: -0.061,inactive: -0.084,,inactive: 0.024,inactive: -0.065,
EIF3G (UniProt K7ER90),inactive: -0.077,inactive: -0.087,inactive: -0.085,,inactive: -0.041,inactive: -0.099,,inactive: -0.036,inactive: 0.127,inactive: 0.075
"EED, A0A5F9ZI63",inactive: -0.032,inactive: -0.012,inactive: -0.041,inactive: 0.042,inactive: 0.053,inactive: 0.05,inactive: 0.03,inactive: 0.052,inactive: 0.145,
ELOC (UniProt Q15369),inactive: 0.017,inactive: -0.011,inactive: -0.018,inactive: -0.027,inactive: -0.07,inactive: -0.032,inactive: -0.042,inactive: 0.008,inactive: 0.165,
EFL1 (UniProt Q7Z2Z2),inactive: 0.016,inactive: -0.019,inactive: -0.039,inactive: -0.004,inactive: -0.069,inactive: -0.103,inactive: 0.03,inactive: 0.005,inactive: -0.058,
EIF4A1 (UniProt P60842),inactive: -0.008,inactive: -0.022,inactive: -0.131,inactive: 0.026,inactive: -0.151,inactive: -0.124,inactive: -0.001,inactive: 0.016,inactive: 0.017,
ELMO1 (UniProt Q92556),inactive: -0.022,inactive: -0.176,,inactive: 0.069,inactive: -0.091,inactive: -0.094,active: 0.761,inactive: -0.161,,
EEF1G isoform 2 (UniProt P26641),inactive: -0.02,inactive: -0.083,inactive: 0.044,inactive: 0.059,inactive: 0.006,inactive: -0.067,inactive: -0.024,inactive: 0.042,inactive: 0.017,
EML5 isoform 5 (UniProt Q05BV3),inactive: 0.071,inactive: 0.015,inactive: -0.023,inactive: -0.076,,inactive: -0.041,inactive: 0.023,inactive: 0,inactive: 0.303,inactive: 0.124
